Binding data for 3 substances are collected here from doi:10.1101/742544.

By UniProt entry, the sequences of proteins in these tests, tags left out. Where a name states a change or a piece, a line headed by the entry shows the natural chain unless it says otherwise. Chains listed by the source or under a name are the forms on record and can include a tag or linker. Residues count along the entry.
UniProt P01375, residues 77-233: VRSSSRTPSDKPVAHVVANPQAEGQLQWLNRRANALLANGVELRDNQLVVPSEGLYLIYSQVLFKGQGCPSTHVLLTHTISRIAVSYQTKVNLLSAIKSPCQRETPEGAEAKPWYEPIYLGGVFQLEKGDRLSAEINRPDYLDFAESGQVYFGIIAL
HOIP K778R (mouse, endogenous in Hoip^K778R/K778R knockin MEFs) (Q924T7-1, form named): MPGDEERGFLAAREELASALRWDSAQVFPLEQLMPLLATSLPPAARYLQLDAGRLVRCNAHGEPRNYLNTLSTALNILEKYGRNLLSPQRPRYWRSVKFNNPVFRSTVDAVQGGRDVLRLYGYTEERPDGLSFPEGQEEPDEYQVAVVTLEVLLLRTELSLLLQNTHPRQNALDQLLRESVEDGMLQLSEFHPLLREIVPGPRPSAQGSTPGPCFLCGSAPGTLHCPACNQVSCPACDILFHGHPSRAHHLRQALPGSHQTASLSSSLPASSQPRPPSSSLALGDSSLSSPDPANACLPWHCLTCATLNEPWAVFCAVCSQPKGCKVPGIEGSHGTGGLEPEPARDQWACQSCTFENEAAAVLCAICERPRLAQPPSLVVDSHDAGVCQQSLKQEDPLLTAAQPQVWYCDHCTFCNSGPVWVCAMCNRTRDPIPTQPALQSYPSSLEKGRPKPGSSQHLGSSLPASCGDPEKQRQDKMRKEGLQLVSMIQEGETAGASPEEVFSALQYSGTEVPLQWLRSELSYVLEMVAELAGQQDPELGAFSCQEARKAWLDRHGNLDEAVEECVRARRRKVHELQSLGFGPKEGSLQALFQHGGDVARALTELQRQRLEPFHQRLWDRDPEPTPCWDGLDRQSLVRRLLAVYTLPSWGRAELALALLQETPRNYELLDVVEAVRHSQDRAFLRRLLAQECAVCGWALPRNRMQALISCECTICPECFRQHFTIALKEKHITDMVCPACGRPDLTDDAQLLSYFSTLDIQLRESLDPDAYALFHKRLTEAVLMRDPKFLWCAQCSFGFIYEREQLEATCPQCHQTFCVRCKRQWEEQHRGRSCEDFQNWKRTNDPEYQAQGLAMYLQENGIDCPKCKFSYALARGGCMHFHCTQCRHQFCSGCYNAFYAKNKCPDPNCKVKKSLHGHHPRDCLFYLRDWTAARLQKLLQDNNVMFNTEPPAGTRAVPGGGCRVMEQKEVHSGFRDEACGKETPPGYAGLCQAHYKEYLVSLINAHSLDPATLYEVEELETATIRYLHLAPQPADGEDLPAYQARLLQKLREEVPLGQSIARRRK
UniProt O88522: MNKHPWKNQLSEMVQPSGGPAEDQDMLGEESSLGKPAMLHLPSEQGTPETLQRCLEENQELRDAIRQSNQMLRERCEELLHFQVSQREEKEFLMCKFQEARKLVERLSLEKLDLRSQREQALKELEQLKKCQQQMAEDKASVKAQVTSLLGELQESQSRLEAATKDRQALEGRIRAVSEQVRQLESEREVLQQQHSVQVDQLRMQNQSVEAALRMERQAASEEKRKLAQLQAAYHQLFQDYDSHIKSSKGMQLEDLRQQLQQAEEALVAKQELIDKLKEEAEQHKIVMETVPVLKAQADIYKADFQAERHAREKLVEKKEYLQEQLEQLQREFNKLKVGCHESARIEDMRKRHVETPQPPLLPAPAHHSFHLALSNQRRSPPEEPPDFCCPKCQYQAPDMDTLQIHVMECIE

Assay [1] addresses Recombinant human Flag-TNF (human) (UniProt P01375). Kind of assay: co-IP.
Assay [2] addresses T1, FADD (mouse, endogenous in MEFs) (mouse (endogenous in MEFs)) (UniProt Q61160).
T1 sequence: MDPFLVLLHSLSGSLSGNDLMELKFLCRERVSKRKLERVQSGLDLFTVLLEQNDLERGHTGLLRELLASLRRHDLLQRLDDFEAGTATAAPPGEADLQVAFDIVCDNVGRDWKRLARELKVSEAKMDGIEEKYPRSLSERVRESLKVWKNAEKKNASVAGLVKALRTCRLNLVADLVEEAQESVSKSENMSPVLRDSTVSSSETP
Description: co-IP.

Results are given in words; binding and its absence hold for the method and conditions named. Binding seen in cells or lysates may run through a third protein. Some binding calls cover weakened binding; strength is not graded here.

Take “HOIP (mouse, wild type, endogenous in Hoip+/+ MEFs) (from UniProt Q924T7-1 1-1066) (enzyme)”: in assay [1], the binding entry was “binds”. In the case of “HOIP K778R (mouse, endogenous in Hoip^K778R/K778R knockin MEFs) (from UniProt Q924T7-1 1-1066) (enzyme)”, the binding result in assay [1] and in assay [2] was “binds” in each case.

“NEMO (mouse, endogenous in MEFs) (from UniProt O88522 1-412)”: the binding entry in assay [1] is given as “binds”.
